Here are results for three molecules from article PMC4917648, “praja2 regulates KSR1 stability and mitogenic signaling” (Cell Death & Disease, 2016).

In test [1] the target is T1, GST-praja2 (full-length praja2 fused to the C-terminus of GST) (UniProt O43164).
T1 sequence: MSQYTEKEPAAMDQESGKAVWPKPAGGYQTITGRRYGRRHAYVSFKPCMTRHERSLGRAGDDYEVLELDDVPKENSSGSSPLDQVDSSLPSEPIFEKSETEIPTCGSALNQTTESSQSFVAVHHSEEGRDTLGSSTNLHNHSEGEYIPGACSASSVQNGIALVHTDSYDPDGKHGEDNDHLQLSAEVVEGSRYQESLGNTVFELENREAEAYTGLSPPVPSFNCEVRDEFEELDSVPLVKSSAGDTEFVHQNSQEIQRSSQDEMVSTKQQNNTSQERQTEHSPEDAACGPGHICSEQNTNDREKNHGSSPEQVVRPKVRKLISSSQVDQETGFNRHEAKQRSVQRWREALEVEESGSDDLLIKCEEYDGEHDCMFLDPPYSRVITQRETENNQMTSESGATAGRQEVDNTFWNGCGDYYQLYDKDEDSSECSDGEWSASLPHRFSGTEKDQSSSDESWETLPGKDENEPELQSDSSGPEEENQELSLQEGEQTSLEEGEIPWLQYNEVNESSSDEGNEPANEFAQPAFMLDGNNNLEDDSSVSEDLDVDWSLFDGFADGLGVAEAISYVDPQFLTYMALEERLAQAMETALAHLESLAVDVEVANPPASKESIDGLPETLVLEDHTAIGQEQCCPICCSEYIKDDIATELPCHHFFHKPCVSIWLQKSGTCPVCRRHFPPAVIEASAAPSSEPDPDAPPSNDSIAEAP
Put plainly: pull-down; 20 μl of GST-praja2 beads with in vitro-translated [35S]-labeled KSR1 in 200 μl lysis buffer (150 mM NaCl, 50 mM Tris-HCl pH 7.5, 1 mM EDTA, 0.5% triton X-100), 4 °C overnight; washes with 0.4 M NaCl; autoradiography; only the target purified.

The target in test [2] is T2, kinase suppressor of Ras 1 (KSR1), endogenous (human (endogenous in HEK293)) (UniProt Q8IVT5).
T2 sequence: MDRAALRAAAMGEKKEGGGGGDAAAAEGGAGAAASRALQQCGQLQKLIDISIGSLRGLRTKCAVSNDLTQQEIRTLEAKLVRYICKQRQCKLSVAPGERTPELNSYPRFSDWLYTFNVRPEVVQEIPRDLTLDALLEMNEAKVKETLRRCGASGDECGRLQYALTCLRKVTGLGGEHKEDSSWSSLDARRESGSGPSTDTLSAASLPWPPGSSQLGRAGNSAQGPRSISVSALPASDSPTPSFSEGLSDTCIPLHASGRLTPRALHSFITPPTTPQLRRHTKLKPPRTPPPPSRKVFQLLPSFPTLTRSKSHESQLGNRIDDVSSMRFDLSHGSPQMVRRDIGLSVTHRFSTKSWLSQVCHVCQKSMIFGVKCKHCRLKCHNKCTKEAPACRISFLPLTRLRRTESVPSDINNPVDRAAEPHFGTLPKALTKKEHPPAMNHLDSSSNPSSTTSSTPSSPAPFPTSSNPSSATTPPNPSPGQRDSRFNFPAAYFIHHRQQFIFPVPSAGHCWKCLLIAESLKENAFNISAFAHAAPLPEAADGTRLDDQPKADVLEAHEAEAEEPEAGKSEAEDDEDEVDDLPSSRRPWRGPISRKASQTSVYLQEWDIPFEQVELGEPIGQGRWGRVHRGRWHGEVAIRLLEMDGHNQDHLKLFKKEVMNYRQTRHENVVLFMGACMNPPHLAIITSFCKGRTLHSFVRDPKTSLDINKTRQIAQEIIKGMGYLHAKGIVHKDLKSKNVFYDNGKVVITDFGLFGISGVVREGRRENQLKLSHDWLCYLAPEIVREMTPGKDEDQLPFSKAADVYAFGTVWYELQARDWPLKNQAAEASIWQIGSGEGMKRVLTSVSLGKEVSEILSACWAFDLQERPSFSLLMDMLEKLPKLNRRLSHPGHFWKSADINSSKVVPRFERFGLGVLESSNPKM
Put plainly: co-IP; cells pretreated with synthetic peptides (1 μM; scrambled-Flag or go-onERK-Flag); lysates immunoprecipitated for KSR1, blotted for praja2 and KSR1.

The target in test [3] is T2, kinase suppressor of Ras 1 (KSR1), endogenous (human (endogenous in HEK293)). Put plainly: co-IP; endogenous KSR1 and praja2 complex isolated from lysates (2 mg) of HEK293 cells.
The target of another test is T3, myc-KSR1 (UniProt Q8IVT5).
T3 sequence: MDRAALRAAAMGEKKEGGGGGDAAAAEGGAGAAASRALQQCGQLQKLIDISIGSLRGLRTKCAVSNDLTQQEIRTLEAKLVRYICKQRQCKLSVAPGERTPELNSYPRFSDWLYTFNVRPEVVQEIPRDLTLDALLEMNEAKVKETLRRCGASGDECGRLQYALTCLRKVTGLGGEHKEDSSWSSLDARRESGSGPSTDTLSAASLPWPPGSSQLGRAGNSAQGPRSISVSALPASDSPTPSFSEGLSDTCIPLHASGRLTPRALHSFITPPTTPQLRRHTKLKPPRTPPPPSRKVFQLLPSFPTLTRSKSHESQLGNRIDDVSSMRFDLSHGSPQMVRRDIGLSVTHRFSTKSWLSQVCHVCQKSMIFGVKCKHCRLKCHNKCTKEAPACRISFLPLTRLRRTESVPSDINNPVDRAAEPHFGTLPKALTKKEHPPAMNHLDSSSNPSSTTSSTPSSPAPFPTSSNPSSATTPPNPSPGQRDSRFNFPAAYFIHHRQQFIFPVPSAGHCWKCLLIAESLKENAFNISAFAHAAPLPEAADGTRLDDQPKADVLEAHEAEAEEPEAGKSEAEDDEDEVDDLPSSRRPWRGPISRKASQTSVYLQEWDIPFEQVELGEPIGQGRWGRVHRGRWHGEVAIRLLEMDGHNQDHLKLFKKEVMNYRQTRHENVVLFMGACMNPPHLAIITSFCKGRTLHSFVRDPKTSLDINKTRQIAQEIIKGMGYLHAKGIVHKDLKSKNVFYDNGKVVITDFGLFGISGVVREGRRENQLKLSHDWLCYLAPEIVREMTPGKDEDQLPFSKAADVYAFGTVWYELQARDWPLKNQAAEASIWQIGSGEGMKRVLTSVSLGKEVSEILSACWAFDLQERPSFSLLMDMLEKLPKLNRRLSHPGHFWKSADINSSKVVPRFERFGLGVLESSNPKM
Put plainly: co-IP; HEK293 cells transiently transfected with flag-praja2 constructs, MG132 (10 μM) for 12 h before harvesting; lysates immunoprecipitated with anti-KSR1, blotted with anti-KSR1 and anti-flag.

No constants are given. Whether binding was seen depends on the method and setting. In cells and extracts the contact can be indirect. Some entries that bind do so weakly or less than the wild type. For some of these results: Where a sequence is shown, tags or fusion partners need not be part of it.

B1: in vitro-translated, [35S]-labeled KSR1 (protein, UniProt Q8IVT5 1-923)
chain: MDRAALRAAAMGEKKEGGGGGDAAAAEGGAGAAASRALQQCGQLQKLIDISIGSLRGLRTKCAVSNDLTQQEIRTLEAKLVRYICKQRQCKLSVAPGERTPELNSYPRFSDWLYTFNVRPEVVQEIPRDLTLDALLEMNEAKVKETLRRCGASGDECGRLQYALTCLRKVTGLGGEHKEDSSWSSLDARRESGSGPSTDTLSAASLPWPPGSSQLGRAGNSAQGPRSISVSALPASDSPTPSFSEGLSDTCIPLHASGRLTPRALHSFITPPTTPQLRRHTKLKPPRTPPPPSRKVFQLLPSFPTLTRSKSHESQLGNRIDDVSSMRFDLSHGSPQMVRRDIGLSVTHRFSTKSWLSQVCHVCQKSMIFGVKCKHCRLKCHNKCTKEAPACRISFLPLTRLRRTESVPSDINNPVDRAAEPHFGTLPKALTKKEHPPAMNHLDSSSNPSSTTSSTPSSPAPFPTSSNPSSATTPPNPSPGQRDSRFNFPAAYFIHHRQQFIFPVPSAGHCWKCLLIAESLKENAFNISAFAHAAPLPEAADGTRLDDQPKADVLEAHEAEAEEPEAGKSEAEDDEDEVDDLPSSRRPWRGPISRKASQTSVYLQEWDIPFEQVELGEPIGQGRWGRVHRGRWHGEVAIRLLEMDGHNQDHLKLFKKEVMNYRQTRHENVVLFMGACMNPPHLAIITSFCKGRTLHSFVRDPKTSLDINKTRQIAQEIIKGMGYLHAKGIVHKDLKSKNVFYDNGKVVITDFGLFGISGVVREGRRENQLKLSHDWLCYLAPEIVREMTPGKDEDQLPFSKAADVYAFGTVWYELQARDWPLKNQAAEASIWQIGSGEGMKRVLTSVSLGKEVSEILSACWAFDLQERPSFSLLMDMLEKLPKLNRRLSHPGHFWKSADINSSKVVPRFERFGLGVLESSNPKM
modifications: [35S]-labeled methionine
As to B1, the binding result in test [1] was “binds”.

B2: praja2 (endogenous) (natural protein, human (endogenous in HEK293), UniProt O43164 1-708, looked up)
chain: MSQYTEKEPAAMDQESGKAVWPKPAGGYQTITGRRYGRRHAYVSFKPCMTRHERSLGRAGDDYEVLELDDVPKENSSGSSPLDQVDSSLPSEPIFEKSETEIPTCGSALNQTTESSQSFVAVHHSEEGRDTLGSSTNLHNHSEGEYIPGACSASSVQNGIALVHTDSYDPDGKHGEDNDHLQLSAEVVEGSRYQESLGNTVFELENREAEAYTGLSPPVPSFNCEVRDEFEELDSVPLVKSSAGDTEFVHQNSQEIQRSSQDEMVSTKQQNNTSQERQTEHSPEDAACGPGHICSEQNTNDREKNHGSSPEQVVRPKVRKLISSSQVDQETGFNRHEAKQRSVQRWREALEVEESGSDDLLIKCEEYDGEHDCMFLDPPYSRVITQRETENNQMTSESGATAGRQEVDNTFWNGCGDYYQLYDKDEDSSECSDGEWSASLPHRFSGTEKDQSSSDESWETLPGKDENEPELQSDSSGPEEENQELSLQEGEQTSLEEGEIPWLQYNEVNESSSDEGNEPANEFAQPAFMLDGNNNLEDDSSVSEDLDVDWSLFDGFADGLGVAEAISYVDPQFLTYMALEERLAQAMETALAHLESLAVDVEVANPPASKESIDGLPETLVLEDHTAIGQEQCCPICCSEYIKDDIATELPCHHFFHKPCVSIWLQKSGTCPVCRRHFPPAVIEASAAPSSEPDPDAPPSNDSIAEAP
Take B2: the binding entry in test [2] and in test [3] was “binds” each time.

B3: flag-praja2 (wild type) (protein, UniProt O43164 1-708)
chain: MSQYTEKEPAAMDQESGKAVWPKPAGGYQTITGRRYGRRHAYVSFKPCMTRHERSLGRAGDDYEVLELDDVPKENSSGSSPLDQVDSSLPSEPIFEKSETEIPTCGSALNQTTESSQSFVAVHHSEEGRDTLGSSTNLHNHSEGEYIPGACSASSVQNGIALVHTDSYDPDGKHGEDNDHLQLSAEVVEGSRYQESLGNTVFELENREAEAYTGLSPPVPSFNCEVRDEFEELDSVPLVKSSAGDTEFVHQNSQEIQRSSQDEMVSTKQQNNTSQERQTEHSPEDAACGPGHICSEQNTNDREKNHGSSPEQVVRPKVRKLISSSQVDQETGFNRHEAKQRSVQRWREALEVEESGSDDLLIKCEEYDGEHDCMFLDPPYSRVITQRETENNQMTSESGATAGRQEVDNTFWNGCGDYYQLYDKDEDSSECSDGEWSASLPHRFSGTEKDQSSSDESWETLPGKDENEPELQSDSSGPEEENQELSLQEGEQTSLEEGEIPWLQYNEVNESSSDEGNEPANEFAQPAFMLDGNNNLEDDSSVSEDLDVDWSLFDGFADGLGVAEAISYVDPQFLTYMALEERLAQAMETALAHLESLAVDVEVANPPASKESIDGLPETLVLEDHTAIGQEQCCPICCSEYIKDDIATELPCHHFFHKPCVSIWLQKSGTCPVCRRHFPPAVIEASAAPSSEPDPDAPPSNDSIAEAP
With B3, the binding entry with myc-KSR1 is “binds”.
